## Screening data

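Luminescence from an EWS-FLI1 target-promoter (NR0B1) reporter, set against a CMV-promoter reporter, two days after silencing single genes in TC32 Ewing sarcoma cells. Each siRNA was applied at 20 nM. A z-score of the log NR0B1-over-CMV signal, less the median of siRNAs with the same seed; more negative means a stronger specific loss of the NR0B1 reporter.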

The strongest results of the screen are mostly left out here. Sequences are the guide (antisense) strand, without overhang.

| strand | target gene | seed-corrected z-score |
|---|---|---|
| `AUCCAUAUAAAGUGCAUGG` | AWAT1 | 0.2012 |
| `UAAAUGGUCUUGCUCUUGG` | SFRP2 | 0.1811 |
| `UAGACAUCGAGAAUGUUCU` | KLHL22 | 0.9665 |
| `UUGGUGAUAGGCCAGCUUG` | DNLZ | -0.1202 |
| `AACGUGAAUGGAAUCUUGC` | ORC2 | -0.7045 |
| `UUCGAUAUGGGAAAGAUUC` | CREBBP | 0.6099 |
| `AUCUUUGUCAGAGAGCUUC` | IQCF1 | 0.08441 |
| `UUUCCAUCAUAAAUGAGUG` | POLR3F | 0.1456 |
| `UCAGGUUGAAAGUCCACAC` | DNAH9 | -0.3023 |
| `AUACCGAUGUAUUAGAUCC` | SLC39A14 | -0.3568 |
| `UAAGCAUAAAGAACUCGUC` | MGST3 | 0.069 |
| `UGGUAUAUAAUUUAGGAUC` | CKAP2L | -0.6647 |
| `UCAGUGACGAAGAGGUCGG` | LRRC14B | -0.3795 |
| `UCAAUAGUAAUUCCAAUAC` | ELP3 | 0.4462 |
| `UGUAGUAUCAUUCUGGGCC` | NAA35 | -0.1354 |
| `UUGAUGAAUGGUAUCUUGG` | PLP2 | -0.05741 |
| `UUAACACCAUUAGUCACCG` | SPECC1L | 0.8234 |
| `UGCCUCGACUCUUUCAUCC` | HOXB3 | 0.2715 |
| `UGAAGUUAGAGACCCACGG` | SEMA5B | -0.1519 |
| `UUUCGUUAUGUUUAAAACC` | MTERF3 | 0.8954 |
| `AUCCUUAUAAUAGAUCACC` | FCER1A | 0.4491 |
| `UCGGGAAAGAUGAAUAGCA` | TRIM11 | 0.08717 |
| `AACACUUUCACCCUGGUGC` | NHLRC1 | 0.1404 |
| `AAUCCUUGCUCUUAUACUG` | RPL36AP46 | 2.085 |
| `UUACUAUCCAUAAUGACUA` | KRTAP2-4 | 0.05688 |
| `UAGCUAACUCCUGAGAUGG` | ZNF281 | -0.3418 |
| `UCUGGACAUGUAGAUUUCC` | WDR54 | 1.268 |
| `AUCAGGAUCCGGUAGAUGC` | DDX49 | 0.052 |
| `UUUCCUACAGCACGGACAG` | RNF151 | -0.148 |
| `UUACCGUCUGGUAAGGCAC` | FBXW8 | 1.322 |
| `UUCCUCAAGGUUGUGGAUG` | SIGLEC12 | 0.3686 |
| `UGUUCAAUGUCUUUAAGCC` | KLHL1 | 0.06801 |
| `AAACUGUCCGUAGCCCUGC` | RNF126 | -0.8047 |
| `UUGGAUACAAACUAUCUGA` | LAT | 0.7695 |
| `AAAGUUGACAUCACUGCUU` | RNASE12 | 0.4211 |
| `UACAUUUUAACAAUCUGCU` | SAV1 | 0.7072 |
| `UUCGUUCAUAAAGCUUCUG` | SAP30BP | 0.01862 |
| `UGCAGAACCAAUGCAGCUG` | FAM114A2 | 0.6359 |
| `AGAAGAUCCCGAUUUGUCU` | CD177 | -0.2003 |
| `UUUUGGUUUGGAACUCUGA` | MAP6 | 0.2713 |
| `UUGUGGUUCAUGCCGAUGU` | NDRG1 | -0.03682 |
| `UAUCAAUUCAUCCUUAUCU` | KLRB1 | 0.5707 |
| `ACAGGUAGGACUUCUCCCG` | KIF19 | -0.3084 |
| `UUUCCAUCUUCGAAGCUCC` | LARGE | -0.1511 |
| `UUAGAGGCAAAAAUCCUGG` | BYSL | -0.09597 |
| `UACUUGUUAAUAUACUACG` | MKKS | -0.3942 |
| `UACCGUAUAUCAUUCAAUG` | CHN1 | -0.6545 |
| `AUAUAUUCCGAAGUCAUCC` | HEPACAM2 | -1.76 |
| `UUUAAGACCAGGUGAAACC` | PHLDB3 | -1.656 |
| `UCUGGGUCAUGCAACAUAC` | OR10AD1 | -1.714 |
| `UUCCACAUCAAACAUGAUC` | BNIP3L | 0.4077 |
| `UAGAGUAUGAGAAUCAGCA` | KRTAP19-6 | 0.1716 |
| `UUCGUUCCAUGUGAUGAUG` | ACVR2B | -0.2635 |
| `AAGGUAAUCUCAUCGGUGG` | STS | -1.394 |
| `UUCAUUACCAGCUAUCAAC` | EIF2S3 | -1.494 |
| `UUGUCAAUGACAGGCAUUG` | C15orf39 | -1.567 |
| `UUGUAGACGCCCACCAUGC` | RPS15 | 1.718 |
| `UUCCGUCAUUGGUUAGUGG` | APPL2 | 0.1893 |
| `AGAACUGAAAGGUUUACGC` | ZC2HC1B | 0.1225 |
| `UAAGGUUGUCUUUCGAAAG` | UTP18 | 0.7412 |
| `UCCUGAUCUAGGGUAUUCC` | ZKSCAN2 | 0.3254 |
| `UAGCUGUUGAGUUCAUUGC` | ANGPTL7 | 0.3545 |
| `UUCUUCUUGGGAUCCAUUC` | PODXL2 | 0.07921 |
| `AUACACUGAAUAGCUCUCC` | HIST1H2BD | 0.958 |
| `UUCAUGUCCAGUUUUCCUG` | CHCHD5 | -0.9415 |
| `UCUGAAGCAAUCUUCUGCC` | PM20D2 | -0.08809 |
| `UUGACAUUCACGGUCCCUC` | ADCY9 | 1.675 |
| `UUAGGGACAAACUUCAGCG` | MSRB1 | 0.1413 |
| `UACUCAGAAACCAUCUCCU` | PDZD7 | 0.504 |
| `UAAAGUACAGUGUCACUUG` | GUCY2D | 0.8739 |
| `UGUGAUACCAUGCCUAUGU` | ASAH2 | 0.03957 |
| `UAAUGGUCUCUCGAAAGGC` | GFM1 | 0.08157 |

For reference, 6 entries once more:

strand	target gene	seed-corrected z-score
AAGGUAAUCUCAUCGGUGG	STS	-1.394
UAGAGUAUGAGAAUCAGCA	KRTAP19-6	0.1716
UCGGGAAAGAUGAAUAGCA	TRIM11	0.08717
UUUAAGACCAGGUGAAACC	PHLDB3	-1.656
AUCCUUAUAAUAGAUCACC	FCER1A	0.4491
UAGACAUCGAGAAUGUUCU	KLHL22	0.9665

Data taken from PubChem BioAssay AID1159506, deposited by NCATS (2015).